Experimental data from patent publication US20080227707A1, “BIOACTIVE PEPTIDES AND UNIQUE IRES ELEMENTS FROM MYELIN PROTEOLIPID PROTEIN PLP/DM20” (WAYNE STATE UNIVERSITY, priority 2002, published 2008).
Some entries share one result that the patent states for a list of compounds.

System: human 293 cell line
Assay: Colony formation assay after transfection and G418 selection
Assay type: cell-based
Details: 293 cells, calcium phosphate transfection, colonies grown 2 weeks, vs pBSII PIRP-M control DNA lacking G418 resistance
Protocol: Transfections were performed in 100×20 mm dishes using the Profection® Mammalian Transfection System—a calcium phosphate transfection kit (Promega, Madison, Wis.). Cells grown to 50-70% confluence were fed 3 hrs prior to addition of the calcium phosphate/DNA mixture. A standard transfection assay contained 15 μg of plasmid DNA, while double transfections were done with 10 μg of each plasmid (20 μg total). The culture medium was removed 24 hrs post transfection and cells were processed for microscopic analysis or passed for G418 or Hygromycin B selection 48 hrs post transfection.
All constitutive expression cell lines were isolated by selection with the G418 antibiotic. 24 hrs after cell passage (see above), transfected 293 and NT2 cells were treated with 500 μg/mL G418 (Invitrogen Life Technologies) in DMEM. The selection medium was changed every second day for 2-2.5 weeks, during which the majority of cells detach and G418 resistant colonies emerge. Depending upon the number and density of colonies, surviving cells were grown for 3-5 days in G418-free medium prior to subcloning. Once colonies reached the appropriate size, each plate was briefly examined for fluorescence, and colonies with the lowest number of nonfluorescent, contaminating cells were marked for subcloning. […]

## PIRP-L: ~7 kDa polypeptide translated from Met234 of PLP/DM20 mRNA via IRES; SEQ ID NO:8 (MTFHLFIAAFVGAAATLVSLLTFMIAATYNFAVLKLMGRGTKF; listed as Homo sapiens)
  increase in colony number over controls: 1200-1500 fold
